Experiment [1] addresses T1, MAK-2 (yeast two-hybrid construct) (Neurospora crassa) (UniProt V5IKE7).
T1 sequence: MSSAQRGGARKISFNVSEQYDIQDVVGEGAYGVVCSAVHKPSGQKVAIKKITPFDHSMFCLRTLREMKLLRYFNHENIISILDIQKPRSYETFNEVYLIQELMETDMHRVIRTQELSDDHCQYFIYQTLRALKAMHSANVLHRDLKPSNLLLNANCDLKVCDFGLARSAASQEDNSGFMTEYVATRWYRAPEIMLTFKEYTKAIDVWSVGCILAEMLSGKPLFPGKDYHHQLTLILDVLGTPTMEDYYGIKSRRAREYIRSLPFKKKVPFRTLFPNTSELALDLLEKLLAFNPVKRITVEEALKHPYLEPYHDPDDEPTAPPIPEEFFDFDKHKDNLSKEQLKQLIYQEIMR
As to the kind of experiment: two-hybrid; constructs co-expressed in yeast strain AH109, growth on selective media; reciprocal assays in Figure S2.

The chains behind the UniProt entries cited, without tags or fusion partners.
UniProt V5IN79: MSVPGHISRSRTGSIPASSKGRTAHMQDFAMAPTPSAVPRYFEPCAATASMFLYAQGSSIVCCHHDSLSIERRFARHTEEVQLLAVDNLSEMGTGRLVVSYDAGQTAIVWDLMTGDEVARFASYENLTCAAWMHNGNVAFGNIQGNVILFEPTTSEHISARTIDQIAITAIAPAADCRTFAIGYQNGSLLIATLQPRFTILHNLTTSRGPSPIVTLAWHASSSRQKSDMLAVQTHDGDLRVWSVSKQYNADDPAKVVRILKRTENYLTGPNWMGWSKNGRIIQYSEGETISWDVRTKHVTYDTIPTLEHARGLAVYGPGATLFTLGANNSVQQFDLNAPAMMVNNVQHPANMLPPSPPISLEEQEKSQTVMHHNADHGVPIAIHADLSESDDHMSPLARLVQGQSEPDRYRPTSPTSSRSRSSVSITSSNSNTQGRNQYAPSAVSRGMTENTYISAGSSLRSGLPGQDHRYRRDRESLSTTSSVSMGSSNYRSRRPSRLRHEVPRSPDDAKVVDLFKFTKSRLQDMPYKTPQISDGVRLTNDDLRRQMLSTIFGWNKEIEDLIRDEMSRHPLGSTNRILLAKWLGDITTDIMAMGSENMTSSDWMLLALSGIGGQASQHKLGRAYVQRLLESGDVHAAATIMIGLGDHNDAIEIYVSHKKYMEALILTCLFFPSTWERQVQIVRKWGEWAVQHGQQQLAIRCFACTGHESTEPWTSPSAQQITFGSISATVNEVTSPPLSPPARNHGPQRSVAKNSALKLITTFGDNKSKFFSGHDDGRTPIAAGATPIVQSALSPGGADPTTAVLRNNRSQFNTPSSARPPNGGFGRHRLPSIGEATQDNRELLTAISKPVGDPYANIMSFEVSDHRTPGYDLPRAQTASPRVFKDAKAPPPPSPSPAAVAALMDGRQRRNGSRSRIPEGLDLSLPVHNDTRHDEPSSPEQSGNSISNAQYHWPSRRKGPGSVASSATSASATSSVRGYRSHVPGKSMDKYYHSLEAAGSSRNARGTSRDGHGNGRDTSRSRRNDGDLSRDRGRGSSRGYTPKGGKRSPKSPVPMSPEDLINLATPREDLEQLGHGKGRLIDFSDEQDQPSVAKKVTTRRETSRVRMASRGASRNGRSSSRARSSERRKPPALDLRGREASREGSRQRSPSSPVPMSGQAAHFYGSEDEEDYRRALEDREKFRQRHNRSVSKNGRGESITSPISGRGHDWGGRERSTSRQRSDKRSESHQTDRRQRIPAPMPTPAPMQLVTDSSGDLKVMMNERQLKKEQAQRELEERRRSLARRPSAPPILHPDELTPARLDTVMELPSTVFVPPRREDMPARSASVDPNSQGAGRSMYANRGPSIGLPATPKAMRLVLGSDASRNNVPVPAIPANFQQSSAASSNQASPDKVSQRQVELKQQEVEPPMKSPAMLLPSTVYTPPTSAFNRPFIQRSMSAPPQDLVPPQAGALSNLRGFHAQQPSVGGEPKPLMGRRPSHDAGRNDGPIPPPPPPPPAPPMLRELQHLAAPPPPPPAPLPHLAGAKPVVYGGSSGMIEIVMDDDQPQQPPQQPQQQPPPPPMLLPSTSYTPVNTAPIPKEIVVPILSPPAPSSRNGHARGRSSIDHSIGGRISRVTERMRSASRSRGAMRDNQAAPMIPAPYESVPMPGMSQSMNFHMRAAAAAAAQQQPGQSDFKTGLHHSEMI

The target of experiment [2] is HAM-5 (yeast two-hybrid construct) (Neurospora crassa) (UniProt V5IN79). The experiment is described as above.
Experiment [3] deals with T2, functionally tagged MAK-2 (Neurospora crassa) (UniProt V5IKE7).
T2 sequence: T1 sequence
As to the kind of experiment: co-IP; reciprocal co-immunoprecipitation from N. crassa cell extracts co-expressing tagged proteins, wild type background.

The target of experiment [4] is HAM-5 (yeast two-hybrid construct) (Neurospora crassa) (UniProt V5IN79). As to the kind of experiment: two-hybrid; constructs co-expressed in yeast strain AH109, growth on selective media; reciprocal assays in Figure S2. The source holds these as a separate data set.

Read-outs that look alike come from different tables or passages of the source. No constants are given. Whether binding was seen depends on the method and setting. For some of these results: Binding seen in cells or lysates may run through a third protein. Some results given as binding are weak or reduced against the parent protein; the word gives no strength. For some of these results: Where a sequence is shown, tags or fusion partners need not be part of it.

Experimental findings from article PMC4239118 are described below.

As to “HAM-5 (yeast two-hybrid construct) (from UniProt V5IN79 1-1686)”, the binding result in experiment [1] and in experiment [2] was “binds” throughout.
With “functionally tagged HAM-5 (from UniProt V5IN79 1-1686)”, in experiment [3], the binding entry was “binds”.

B1: STE-20 (yeast two-hybrid construct) (enzyme, UniProt Q7RZD3 1-954)
chain: MDGQLSLLSPTSSSSTSHSRKRLTKKQRPPSANHRTSSSFNVESLRIDAQSLDSKRSASSLRQGPNCNQSPSLARTVSVPVSVPSNAPAHTKASDLSLPRSHTTRSQSANRPYNPTQTIPTNRFILSPASSSQPQTQSPPYPSAVASTTVTSSRNKDTSKQYDPLDSCIGSFDQNKLSTDELIGAPFDGNAILSRIEATKLSAAPAPTSTTTIAHSNNISPRRVAPPPPPPPPALSRSNTDSKAARSSKPSKSPKSTISNKTMGASSFRHSASFSSAEQLPPSEKPSKSESSSSSNKRHSGDGKESRVPGMLRKKSGFSGFMNSLVGSPKKPLISAPENPVHVTHVGYDSNTGQFTGLPKEWQRLISESGITEKDRREHPQILVDVLTFYKETTEKPQEDQQLEKFHDARATDFRSPPVTGTAPLVLQTGVGYAHGPMSPMISPPASPRFPQVGHEGSFENPRAPPPVPKGPGPLPAKDINLIPSRPAPKPPAISTRPLVPPASLPAKDSGIGMPPPGDEAPMPYLPPKDNVQHMYQEEHRNRSRSNSRTNGAAPFSPVQASPLHPIATANQTAAYQQQLLQHQQEQAMAQAQAAMSGQLSRAASKRQQPTPPTSQHQHPRQPDINGAPRMPQTQGAAPQASARPRHRPRQSNAIDVVASLKRICSDGDPREIYRGFTKIGQGASGGVYTGHERGSNRLVAIKQMNLEQQPKKDLIINEILVMKESSHPNIVNFIDSYLCAGELWVVMEYMEGGSLTDVVTFNIMTEGQIASVCRETLRGLQHLHSKGVIHRDIKSDNILLSMEGNIKLTDFGFCATINEAQSKRTTMVGTPYWMAPEVVTRKEYGRKVDIWSLGIMAIEMIEGEPPYLTESPLRALWLIATNGTPHIKDEQSLSPVFRDFLYFALKVDPEKRASAHDLLRHDFMNKCVDLSTLAPLVRAAREARAQEKARKGQ
Consider B1, for which the binding result in experiment [4] is listed as “binds”.
